PubChem BioAssay AID1053208, Peter MacCallum Cancer Centre | 2014
In all, the deposit lists about 17,000 reagents; this is a random part of them. In the full data, 788 (4.7%) were called active. 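Calls rest on z-score classes alone; an extra cut-off of viability at most 70% of control was not applied to them.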 Not all columns of the deposit are shown.

- Purpose: 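Genes whose silencing cuts survival of bone tumour cells only with doxorubicin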 (primary screen)
- Cells: mouse osteosarcoma cells, early-passage culture from an engineered mouse model of fibroblastic bone tumour
- Reagents: siRNA pool against mouse genes, 40 nM
- Timing: about 120 h (48 h before drug, then 72 h with drug)
- Challenge: doxorubicin 100 nM for 72 h, roughly 30-40% inhibitory dose
- Measured: 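Viability read as ATP luminescence after 72 h of 100 nM doxorubicin or none, duplicate wells averaged, scaled to non-targeting siRNA, then expressed as robust z-scores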
- Direction: viability z-score with doxorubicin: higher = more viable cells under doxorubicin; viability z-score without drug: higher = more viable cells with knock-down alone; z-score of drug to no-drug ratio: higher = less drug sensitisation by knock-down
- Hit rule: 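Called active if knock-down leaves viability unchanged without drug (z within -2 to 2) but lowers it with doxorubicin (z at or under -2)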

gene symbol | combined z-score class | viability z-score with doxorubicin | viability z-score without drug | z-score of drug to no-drug ratio | Outcome
Rpl11 (GeneID 67025) | low cell count with and without drug | -4.38 | -3.88 | -2.47 | inactive
Or1j4 (GeneID 258620) | no change with or without drug | -0.45 | 0.51 | -0.67 | inactive
Ccdc85a (GeneID 216613) | no change with or without drug | -0.34 | 1.85 | -1.35 | inactive
Mgat4c (GeneID 67569) | no change with or without drug | 0 | 1.35 | -0.79 | inactive
Hrh4 (GeneID 225192) | low cell count without drug only | 0.67 | -2.36 | 2.81 | inactive
Tenm4 (GeneID 23966) | no change with or without drug | 1.8 | 0.84 | 1.35 | inactive
Dusp1 (GeneID 19252) | no change with or without drug | 1.35 | -0.51 | 1.91 | inactive
Prop1 (GeneID 19127) | no change with or without drug | -0.11 | -0.34 | 0.22 | inactive
Uba2 (GeneID 50995) | no change with or without drug | -1.69 | -1.18 | -0.9 | inactive
Lefty2 (GeneID 320202) | no change with or without drug | 0.45 | -0.34 | 0.79 | inactive
Pbp2 (GeneID 76400) | no change with or without drug | -0.67 | 0.17 | -0.67 | inactive
Rbbp9 (GeneID 26450) | no change with or without drug | 1.24 | -0.51 | 1.8 | inactive
C1ql3 (GeneID 227580) | no change with or without drug | 0.22 | 0.17 | 0.22 | inactive
Gapvd1 (GeneID 66691) | no change with or without drug | -0.67 | -1.18 | 0.22 | inactive
Stxbp1 (GeneID 20910) | no change with or without drug | -0.45 | -0.67 | 0.11 | inactive
Glud1 (GeneID 14661) | no change with or without drug | -0.56 | -0.51 | -0.11 | inactive
H2-Ob (GeneID 15002) | no change with or without drug | 1.12 | -1.18 | 2.25 | inactive
Slc35g1 (GeneID 240660) | high cell count without drug only | 1.12 | 2.19 | -0.22 | inactive
Fcho2 (GeneID 218503) | high cell count without drug only | 1.35 | 2.19 | 0 | inactive
AU044581 | no change with or without drug | -0.45 | -0.84 | 0.22 | inactive

Copied from above (3 entries):
gene symbol | combined z-score class | viability z-score with doxorubicin | viability z-score without drug | z-score of drug to no-drug ratio | Outcome
Slc35g1 (GeneID 240660) | high cell count without drug only | 1.12 | 2.19 | -0.22 | inactive
Fcho2 (GeneID 218503) | high cell count without drug only | 1.35 | 2.19 | 0 | inactive
AU044581 | no change with or without drug | -0.45 | -0.84 | 0.22 | inactive
